Screening data, single-dose tests

Protein sequences, listed by entry. Tags and fused reporters are not part of them. Residues count along the entry.
UniProt I6X8D2, whole entry: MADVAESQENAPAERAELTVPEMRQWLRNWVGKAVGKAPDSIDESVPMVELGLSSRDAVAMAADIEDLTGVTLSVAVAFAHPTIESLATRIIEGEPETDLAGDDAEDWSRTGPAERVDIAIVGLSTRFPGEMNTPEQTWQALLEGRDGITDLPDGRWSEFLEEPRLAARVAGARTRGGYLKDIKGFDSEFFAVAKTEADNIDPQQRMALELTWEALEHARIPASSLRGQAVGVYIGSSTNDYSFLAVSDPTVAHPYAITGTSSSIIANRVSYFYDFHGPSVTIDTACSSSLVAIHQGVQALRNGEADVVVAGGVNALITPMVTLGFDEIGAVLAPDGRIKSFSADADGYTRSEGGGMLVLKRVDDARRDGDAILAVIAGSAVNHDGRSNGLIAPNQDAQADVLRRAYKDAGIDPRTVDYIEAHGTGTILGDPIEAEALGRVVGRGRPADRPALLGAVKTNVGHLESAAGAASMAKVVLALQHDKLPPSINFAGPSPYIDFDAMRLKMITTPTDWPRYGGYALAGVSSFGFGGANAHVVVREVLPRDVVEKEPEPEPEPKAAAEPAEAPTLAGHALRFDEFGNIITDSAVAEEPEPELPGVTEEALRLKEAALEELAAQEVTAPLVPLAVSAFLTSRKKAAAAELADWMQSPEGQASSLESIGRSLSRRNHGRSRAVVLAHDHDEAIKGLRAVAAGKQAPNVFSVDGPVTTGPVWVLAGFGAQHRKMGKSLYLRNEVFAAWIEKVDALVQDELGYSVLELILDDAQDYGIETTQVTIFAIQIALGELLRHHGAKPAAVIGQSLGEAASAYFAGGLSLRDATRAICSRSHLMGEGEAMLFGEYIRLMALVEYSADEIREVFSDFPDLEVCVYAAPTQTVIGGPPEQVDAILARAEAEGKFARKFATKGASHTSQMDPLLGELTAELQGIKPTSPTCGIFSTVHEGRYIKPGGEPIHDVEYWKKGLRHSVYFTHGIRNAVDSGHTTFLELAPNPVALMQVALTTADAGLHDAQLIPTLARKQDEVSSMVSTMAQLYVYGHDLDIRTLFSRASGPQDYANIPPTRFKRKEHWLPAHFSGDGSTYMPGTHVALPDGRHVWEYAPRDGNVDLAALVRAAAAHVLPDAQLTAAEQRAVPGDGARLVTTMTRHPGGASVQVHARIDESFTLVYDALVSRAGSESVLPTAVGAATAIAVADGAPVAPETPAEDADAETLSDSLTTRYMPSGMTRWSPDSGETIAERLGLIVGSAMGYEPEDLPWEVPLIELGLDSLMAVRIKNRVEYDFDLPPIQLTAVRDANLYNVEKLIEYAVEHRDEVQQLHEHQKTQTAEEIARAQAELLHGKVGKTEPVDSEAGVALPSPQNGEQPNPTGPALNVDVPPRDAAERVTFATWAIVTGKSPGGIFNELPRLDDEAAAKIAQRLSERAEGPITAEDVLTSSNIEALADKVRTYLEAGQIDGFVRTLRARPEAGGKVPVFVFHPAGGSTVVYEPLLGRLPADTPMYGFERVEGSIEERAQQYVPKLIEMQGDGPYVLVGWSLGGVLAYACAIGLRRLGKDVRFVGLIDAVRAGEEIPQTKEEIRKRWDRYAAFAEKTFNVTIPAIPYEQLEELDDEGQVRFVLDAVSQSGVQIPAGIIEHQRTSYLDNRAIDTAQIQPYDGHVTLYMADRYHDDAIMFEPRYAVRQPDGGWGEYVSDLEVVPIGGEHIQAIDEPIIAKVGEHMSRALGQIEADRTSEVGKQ
UniProt Q4DA54, 1-478: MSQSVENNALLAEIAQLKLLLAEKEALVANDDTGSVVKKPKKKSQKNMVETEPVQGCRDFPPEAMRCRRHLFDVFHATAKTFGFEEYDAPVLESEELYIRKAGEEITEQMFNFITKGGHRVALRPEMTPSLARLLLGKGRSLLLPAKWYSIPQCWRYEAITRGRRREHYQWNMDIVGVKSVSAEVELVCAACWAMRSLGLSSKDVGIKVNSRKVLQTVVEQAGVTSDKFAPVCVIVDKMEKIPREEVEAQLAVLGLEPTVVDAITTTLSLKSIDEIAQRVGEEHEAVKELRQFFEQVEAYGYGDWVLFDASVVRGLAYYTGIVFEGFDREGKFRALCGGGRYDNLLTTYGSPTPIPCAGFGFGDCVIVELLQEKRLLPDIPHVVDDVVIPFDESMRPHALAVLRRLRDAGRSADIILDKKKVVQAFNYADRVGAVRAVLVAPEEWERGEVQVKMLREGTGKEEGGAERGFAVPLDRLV
UniProt P9WPC5, whole entry: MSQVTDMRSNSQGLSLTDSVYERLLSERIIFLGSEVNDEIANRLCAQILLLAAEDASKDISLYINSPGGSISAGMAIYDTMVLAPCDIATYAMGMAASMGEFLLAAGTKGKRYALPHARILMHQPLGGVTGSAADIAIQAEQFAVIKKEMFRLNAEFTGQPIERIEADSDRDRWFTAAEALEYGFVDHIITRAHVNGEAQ
UniProt P9WPC3, whole entry partner: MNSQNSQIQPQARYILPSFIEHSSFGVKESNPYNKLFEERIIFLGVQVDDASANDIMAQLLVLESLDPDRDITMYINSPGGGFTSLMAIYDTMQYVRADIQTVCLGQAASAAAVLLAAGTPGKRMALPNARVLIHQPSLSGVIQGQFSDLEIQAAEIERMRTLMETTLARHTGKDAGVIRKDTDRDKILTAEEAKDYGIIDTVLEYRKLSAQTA
UniProt A4I591, 1-473: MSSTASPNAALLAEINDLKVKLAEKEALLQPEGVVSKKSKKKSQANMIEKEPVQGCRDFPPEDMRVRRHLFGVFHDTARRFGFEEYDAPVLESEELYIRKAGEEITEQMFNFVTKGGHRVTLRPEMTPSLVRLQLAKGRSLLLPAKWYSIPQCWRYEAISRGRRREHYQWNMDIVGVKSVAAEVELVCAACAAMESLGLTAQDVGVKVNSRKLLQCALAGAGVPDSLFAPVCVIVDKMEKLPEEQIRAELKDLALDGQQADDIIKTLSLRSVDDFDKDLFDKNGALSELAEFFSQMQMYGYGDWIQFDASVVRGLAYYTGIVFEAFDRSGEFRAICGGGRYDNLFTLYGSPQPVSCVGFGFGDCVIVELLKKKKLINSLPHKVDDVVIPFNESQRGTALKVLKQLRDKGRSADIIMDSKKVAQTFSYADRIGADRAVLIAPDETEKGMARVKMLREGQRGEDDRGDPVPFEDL

Data taken from ChEMBL document CHEMBL3988442, “University of Dundee, Small-Polar-MMV Screening Library” (2021).

Each number is a percent effect as filed. The record does not define 0% and 100%; most values in the screen are far below 50% and negative numbers occur (in some assays of this library far below -100). The compounds are a random part of those screened. Two or more numbers in one place are separate tests of the same structure; such repeats can differ widely.

Pks13 thioesterase: 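Polyketide synthase Pks13, Mycobacterium tuberculosis (UniProt I6X8D2). Enzyme assay of the thioesterase domain of polyketide synthase 13; the read-out is not stated. Compounds at 30 µM. The record gives no direction; the compounds picked for IC50 retests had high values, so higher reads as stronger inhibition. About 67,000 compounds were tested under these conditions; 0.46% (about 300) showed 50% or more at least once.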
TcHisRS: 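Histidine-tRNA ligase, Trypanosoma cruzi CL Brener (UniProt Q4DA54). Enzyme assay of histidyl-tRNA synthetase; the read-out is not stated. Compounds at 30 µM. Direction is inferred from retests: higher values go with stronger inhibition. Size under these conditions: about 69,000 compounds, about 31 of them at 50% or above in at least one test.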
ClpP1P2: 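Protease assay of ClpP1P2, read by the AMC dye that it sets free. Target: ClpP1P2, Mycobacterium tuberculosis (UniProt P9WPC5 and UniProt P9WPC3). Concentration: 50 µM. Direction is inferred from only a few compounds that gave an IC50; most scored high, so higher reads as stronger inhibition. Most other retested compounds had strongly negative values. Of about 69,000 compounds tested this way, about 10 (0.015%) reached 50% or more in at least one test.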
Leishmania in macrophages: 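Cell assay of Leishmania donovani living inside macrophages; the read-out is not stated. Compounds at 30 µM. Direction is inferred from retests: higher values go with stronger inhibition. About 69,000 compounds were tested under these conditions; 1.5% (about 1,000) showed 50% or more at least once.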
LiHisRS: 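Enzyme assay of histidyl-tRNA synthetase; the read-out is not stated. Target: Histidine-tRNA ligase, Leishmania infantum (UniProt A4I591). Tested at 30 µM. The record gives no direction; compounds that gave an IC50 in retests scored well above the rest, so higher reads as stronger inhibition. The assay is labelled LdHisRS but filed under L. infantum. About 69,000 compounds were tested under these conditions; 0.6% (about 410) showed 50% or more at least once.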

CN(C)c1ncc(NC(=O)N2CCC(CN3CCCC3)C2)cn1 (stereo not drawn) gave Pks13 thioesterase: -21.78%; TcHisRS: -18.09%; ClpP1P2: -9.477%; Leishmania in macrophages: 26.13%; LiHisRS: 15.62%. Cn1c(N2CCOCC2)nc2cc(C(=O)NCC(F)(F)F)ccc21 read Pks13 thioesterase: -1.014%; TcHisRS: -0.4464%; ClpP1P2: -23.42%; Leishmania in macrophages: 30.12%; LiHisRS: 16.05%. Result for CN(Cc1ccccc1C#N)C1CCN(CCc2ccccn2)CC1 was Pks13 thioesterase: -19.45%; TcHisRS: 8.772%; ClpP1P2: -126.2%; Leishmania in macrophages: 34.29%; LiHisRS: 16.36%. Cc1cc(C)n(CC2CCCN2CCS(=O)(=O)c2ccccc2)n1 (stereo not drawn) read Pks13 thioesterase: 5.895%; TcHisRS: 3.053%; ClpP1P2: -14.35%; Leishmania in macrophages: 25.72%; LiHisRS: 4.255%. O=C(COc1cccc(Br)c1)N1CCOCC1c1ncon1 (stereo not drawn) gave Pks13 thioesterase: -6.146%; TcHisRS: 0%; ClpP1P2: 3.537%; Leishmania in macrophages: 11.52%; LiHisRS: 26.19%. CC(O)c1cn(Cc2ccc(Cl)cc2)nn1 (stereo not drawn) read Pks13 thioesterase: -7.953%; TcHisRS: 9.375%; ClpP1P2: -8.825%; Leishmania in macrophages: -10.04%; LiHisRS: 18.75%. O=C(c1cnco1)N1C[C@@H]2CC[C@H](Oc3cccc(F)c3)[C@@H]2C1 gave Pks13 thioesterase: 47.91%; TcHisRS: -2.703%; ClpP1P2: -8.74%; LiHisRS: 22.22%.

COc1ccc(CN2CCc3ncnc(C4CCOC4)c3CC2)cc1 (stereo not drawn) gave Pks13 thioesterase: -10.58%; TcHisRS: 0.5405%; ClpP1P2: -3.843%; LiHisRS: 11.32%. With O=C(CC1CCCC1)N1CCn2cc(Cn3cccn3)nc2C1.O=C(O)C(F)(F)F the screen gave Leishmania in macrophages: 20.43%. Result for COC[C@]12COC[C@H]1CN(Cc1ccc3ccccc3n1)C2 was Pks13 thioesterase: 8.317%; TcHisRS: 5.747%; ClpP1P2: 8.308%; LiHisRS: 13.16%. With Cn1cc(CCCN2CCCC(c3cc(C(F)(F)F)[nH]n3)C2)cn1 (stereo not drawn) the screen gave Pks13 thioesterase: -10.71%; TcHisRS: 5.82%; ClpP1P2: -5.618%; Leishmania in macrophages: 5.471%; LiHisRS: 20%. Cc1cccc(CN2CCn3c(C(=O)N(C)C)cnc3C2)c1 gave Pks13 thioesterase: -13.52%; TcHisRS: 10.78%; ClpP1P2: 9.835%; Leishmania in macrophages: -2.882%; LiHisRS: 24%. O=C(C1CNCCN1C(=O)CCOc1ccccc1)N1CCCC1 (stereo not drawn) gave Pks13 thioesterase: -20.96%; TcHisRS: 1.786%; ClpP1P2: 10.31%; Leishmania in macrophages: 8.079%; LiHisRS: 21.24%. CS(=O)(=O)c1ccc(NC(=O)NCc2ccc(F)cc2)cn1 read Pks13 thioesterase: -37.91%; TcHisRS: -0.6369%; ClpP1P2: 0.7725%; Leishmania in macrophages: -14.83%; LiHisRS: 23.94%.

CCCc1cc(NC(=O)c2cccc(N3CCCNC3=O)c2)n[nH]1 read Pks13 thioesterase: -1.895%; TcHisRS: 6.349%; ClpP1P2: -3.574%; Leishmania in macrophages: -80.66%; LiHisRS: 8.219%. With N#Cc1ccccc1N1CCCN(CC(=O)Nc2ccccc2Cl)CC1 the screen gave Pks13 thioesterase: -58.35%; TcHisRS: 3.804%; ClpP1P2: 3.415%; Leishmania in macrophages: 1.292%; LiHisRS: 8%. CCOc1ccc(CNC(=O)c2cnc(OC)nc2)cc1 gave Pks13 thioesterase: -15.45%; TcHisRS: 1.463%; ClpP1P2: -2.12%; Leishmania in macrophages: 5.595%; LiHisRS: 10.17%. Cc1cccc(CS(=O)(=O)NCc2nn(C)c3c2CCCC3)c1 read Pks13 thioesterase: -24.51%; TcHisRS: 1.554%; ClpP1P2: 2.3%; Leishmania in macrophages: -6.03%; LiHisRS: 8.602%. For COc1ccc(NC(=O)Cn2nc(C)c(C(C)=O)c2C)cc1 the result was Pks13 thioesterase: -5.924%; TcHisRS: 1.031%; ClpP1P2: 5.808%; Leishmania in macrophages: 75.5% and 64.59%; LiHisRS: 52.17%. Result for c1cc(CN2Cc3nnn(CC4CC4)c3C(COCC3CC3)C2)co1 (stereo not drawn) was Pks13 thioesterase: -33.8%; TcHisRS: 1.639%; ClpP1P2: -12.76%; LiHisRS: 23.53%. c1ccc(CCN2CCN(C3CCOC4(CCOCC4)C3)CC2)nc1 (stereo not drawn) read Pks13 thioesterase: -0.8193%; TcHisRS: 5.473%; ClpP1P2: -11.13%; Leishmania in macrophages: 9.731%; LiHisRS: 18.07%.

O=C(NC1CC(=O)N(C2Cc3ccccc3C2)C1)c1cnccn1 (stereo not drawn) gave Pks13 thioesterase: -19.1%; TcHisRS: 9.091%; ClpP1P2: 3.652%; Leishmania in macrophages: 12.82%; LiHisRS: 5%. Cc1nc(C2CCN(S(=O)(=O)c3ccc4c(c3)CCC4)CC2)n[nH]1 read Pks13 thioesterase: -37.79%; TcHisRS: 8.28%; ClpP1P2: -1.526%; Leishmania in macrophages: 23.37%; LiHisRS: 29.58%. Result for Cc1nc(N(C)CCN(C)C)c2cnn(C)c2n1 was Pks13 thioesterase: 17.48%; TcHisRS: 1.093%; ClpP1P2: -1.122%; Leishmania in macrophages: 5.553%; LiHisRS: 12.28%. c1ccc(-c2nnc(CNC3CCCN(c4cccnn4)C3)o2)cc1 (stereo not drawn) read Pks13 thioesterase: -0.6463%; TcHisRS: 16.13%; ClpP1P2: -17.43%; Leishmania in macrophages: 7.095%; LiHisRS: 21.3%.

Repeated from the top, 3 entries:

{"smiles": "CN(C)c1ncc(NC(=O)N2CCC(CN3CCCC3)C2)cn1", "stereo": "stereo not drawn", "Pks13 thioesterase": -21.78, "TcHisRS": -18.09, "ClpP1P2": -9.477, "Leishmania in macrophages": 26.13, "LiHisRS": 15.62}
{"smiles": "Cn1c(N2CCOCC2)nc2cc(C(=O)NCC(F)(F)F)ccc21", "Pks13 thioesterase": -1.014, "TcHisRS": -0.4464, "ClpP1P2": -23.42, "Leishmania in macrophages": 30.12, "LiHisRS": 16.05}
{"smiles": "CN(Cc1ccccc1C#N)C1CCN(CCc2ccccn2)CC1", "Pks13 thioesterase": -19.45, "TcHisRS": 8.772, "ClpP1P2": -126.2, "Leishmania in macrophages": 34.29, "LiHisRS": 16.36}